Data as given in PubChem BioAssay AID2061322 (National Center for Advancing Translational Sciences (NCATS), 2025).
The inconclusive results got no clear call from the source; some entries with a clear call stand among them for comparison. Potencies beside an inconclusive call are fits to weak or partial responses and may not hold up. Active and inactive are the calls of the source. Calls follow the shape of the dose curve; as a rule, active = well fitted inhibition curve with a large enough effect; inconclusive = small, poorly fitted or top-dose-only effect; inactive = flat fitted curve, though single readings scatter. Square brackets hold non-standard residues; d marks the D form. Peptide text beside a SMILES is read from it. Dolaproine = CO[C@@H]([C@@H]1CCCN1)[C@@H](C)C(=O)O; Dil = CC[C@H](C)[C@H](NC)[C@@H](CC(=O)O)OC; NMeV = CN[C@H](C(=O)O)C(C)C

experiment: Identification of antibody-drug conjugate (ADC) payloads which are substrates of ATP-binding cassette drug efflux transporters: ABCG2-HEK293-R5 cell line with Ko143; conditions: ABCG2-HEK293-R5 with Ko143, CellTiter-Glo viability, 48 h
Text: Antibody-drug conjugates (ADCs) feature an antibody recognizing a specific protein joined to a potent toxic payload. Numerous antibody-drug conjugates have received FDA approval; however, clinical resistance arises. Resistance mechanisms include decreased expression or mutation of the antibody target, impaired payload release, or increased expression of ATP-binding cassette (ABC) efflux transporters associated with multidrug resistance. We therefore sought to characterize the interaction of ABC multidrug transporters with ADC payloads. We performed a high-throughput screen with 27 common ADC payloads using cells lines expressing ABC transporters P-glycoprotein (P-gp, encoded by ABCB1) or ABCG2 (encoded by ABCG2). Confirmatory assays were also performed using cells transfected to express P-gp, ABCG2, or MRP1 (encoded by ABCC1). Several commonly used ADC payloads were substrates of P-gp, including calicheamicin gamma1, monomethyl auristatin E, DM1, and DM4. All the pyrrolobenzodiazepines tested - SJG136, SGD-1882, SG2057, and SG3199 - were substrates of P-gp, ABCG2, and MRP1. […] These findings highlight the risk of transporter-mediated resistance with certain ADC payloads and underscore the importance of selecting payloads that evade ABC transporter recognition in future ADC development.
HEK-293 cells were transfected with empty vector (pcDNA) or vector containing the human ABCB1 (MDR-19), ABCG2 (R-5), or ABCC1 gene (MRP1) and were maintained in EMEM with 2 mg/mL G418 added to maintain transporter expression. The HeLa derivative KB-3-1 and the P-gp overexpressing KB-8-5-11 subline were maintained in DMEM; KB-8-5-11 additionally received 100 ng/mL colchicine. H460 parental cells were obtained from the Division of Cancer Treatment and Diagnosis Tumor Repository, National Cancer Institute at Frederick, MD and were cultured in RPMI. The ABCG2 expressing subline H460 MX20 was generated by selecting H460 cells in 20 nM mitoxantrone. Media in all cases was supplemented with 10% FBS and 1% penicillin-streptomycin. We explored 27 common ADC payloads, in two orthogonal, paired cell line sets-a drug selected and transfected set for each transporter--to identify substrates of the ABC transporters P-gp and ABCG2. Compounds were sourced from Levena Biopharma (San Diego, CA), Selleck Chem (Houston, TX), ChemieTek (Indianapolis, IN), or Microsource Discovery Systems (Gaylordsville, CT). Screening was performed as previously described. Briefly, cells were plated at a density of 500 cells/well in 1536 well plates with compounds added using a 1536-head pin tool (Kalypsys, San Diego CA). Cells were incubated with cytotoxic drugs and processed with CellTiter Glo reagent (Promega, Madison, WI) to determine viability after 48 hours. P-gp substrates were identified by comparing compound activity between paired sets of low-expressing (sensitive) and over-expressing (resistant) cell lines.

| SMILES | Potency |
| --- | --- |
| CCc1c2c(nc3ccc(O)cc13)-c1cc3c(c(=O)n1C2)COC(=O)[C@]3(O)CC | inconclusive: 8.4 nM [inhibitor, full curve] |
| CCN(C(C)=O)[C@H]1CO[C@@H](O[C@H]2[C@H](O[C@H]3C#C/C=C\C#C[C@]4(O)CC(=O)C(NC(=O)OC)=C3/C4=C\CSSSC)O[C@H](C)[C@@H](NO[C@H]3C[C@H](O)[C@H](SC(=O)c4c(C)c(I)c(O[C@@H]5O[C@@H](C)[C@H](O)[C@@H](OC)[C@H]5O)c(OC)c4OC)[C@@H](C)O3)[C@@H]2O)C[C@@H]1OC | active: 33.6 nM |
| COc1cccc2c1C(=O)c1c(O)c3c(c(O)c1C2=O)C[C@@](O)(C(=O)CO)C[C@@H]3O[C@H]1C[C@H](N)[C@H](O)[C@H](C)O1 | inconclusive: 42.3 nM [inhibitor, full curve] |
| CC[C@H](C)[C@@H]([C@H](N)CC(=O)N1CCC[C@H]1[C@H](OC)[C@@H](C)C(=O)N[C@@H](Cc1ccccc1)c1nccs1)N(C)C(=O)[C@@H](NC(=O)[C@@H](NC)C(C)C)C(C)C | inconclusive: 1.1 nM [inhibitor] |
| COC(=O)c1cc2c3c(cc(O)c2[nH]1)N(C(=O)c1cc2cc(OC)c(OC)c(OC)c2[nH]1)CC3CCl (centres undefined) | active: 4.2 nM |
| CCN[C@H]1CO[C@@H](O[C@H]2[C@H](O[C@H]3C#C/C=C\C#C[C@]4(O)CC(=O)C(NC(=O)OC)=C3/C4=C\CSSSC)O[C@H](C)[C@@H](NO[C@H]3C[C@H](O)[C@H](SC(=O)c4c(C)c(I)c(O[C@@H]5O[C@@H](C)[C@H](O)[C@@H](OC)[C@H]5O)c(OC)c4OC)[C@@H](C)O3)[C@@H]2O)C[C@@H]1OC | active: 3 nM |
| Cc1nc(Nc2ncc(C(=O)Nc3c(C)cccc3Cl)s2)cc(N2CCN(CCO)CC2)n1 | inconclusive: 1190 nM [inhibitor, partial curve] |
| COc1cc2cc(c1Cl)N(C)C(=O)C[C@H](O)[C@]1(C)O[C@H]1[C@H](C)C1C[C@@](O)(NC(=O)O1)[C@H](OC)/C=C/C=C(\C)C2 | inconclusive: 1690 nM [inhibitor, full curve] |
| CC[C@H](C)[C@@H]([C@@H](CC(=O)N1CCC[C@H]1[C@H](OC)[C@@H](C)C(=O)N[C@@H](Cc1ccccc1)C(=O)O)OC)N(C)C(=O)[C@@H](NC(=O)[C@@H](NC)C(C)C)C(C)C (H-[NMeV]V[Dil][Dolaproine]F-OH) | inconclusive: 1690 nM [inhibitor, full curve] |
| COc1cccc2c1C(=O)c1c(O)c3c(c(O)c1C2=O)C[C@@](O)(C(=O)CO)C[C@@H]3O[C@H]1C[C@H]2[C@H](O[C@@H]3[C@@H](OC)OCCN32)[C@H](C)O1 | inconclusive: 0.3 nM [inhibitor] |
| CC[C@]1(O)CC2CN(CCc3c([nH]c4ccccc34)[C@@](C(=O)OC)(c3cc4c(cc3OC)N(C)[C@H]3[C@@](O)(C(=O)OC)[C@H](OC(C)=O)[C@]5(CC)C=CCN6CC[C@]43[C@@H]65)C2)C1 (some centres undefined) | inconclusive: 150 nM [inhibitor, full curve] |
| COc1ccc(C2=CN3C(=O)c4cc(OC)c(OCCCOc5cc6c(cc5OC)C(=O)N5C=C(c7ccc(N)cc7)C[C@@H]5C=N6)cc4N=C[C@H]3C2)cc1 | inconclusive: 9.5 nM [inhibitor, full curve] |
| CN(C)CCOc1ccc2[nH]c(C(=O)N3C[C@@H](CCl)c4c3cc(O)c3ccccc43)cc2c1 | active: 1.9 nM |
| CC[C@H](C)[C@@H]([C@H](N)CC(=O)N1CCC[C@H]1[C@H](OC)[C@@H](C)C(=O)N[C@@H](Cc1ccccc1)c1nccs1)N(C)C(=O)[C@@H](NC(=O)[C@H](C(C)C)N(C)C)C(C)C | inconclusive: 3.8 nM [inhibitor, full curve] |

Part of the list above in order of formula weight, low to high:

| SMILES | Potency |
| --- | --- |
| CCc1c2c(nc3ccc(O)cc13)-c1cc3c(c(=O)n1C2)COC(=O)[C@]3(O)CC | inconclusive: 8.4 nM [inhibitor, full curve] |
| COc1cc2cc(c1Cl)N(C)C(=O)C[C@H](O)[C@]1(C)O[C@H]1[C@H](C)C1C[C@@](O)(NC(=O)O1)[C@H](OC)/C=C/C=C(\C)C2 | inconclusive: 1690 nM [inhibitor, full curve] |
| COc1ccc(C2=CN3C(=O)c4cc(OC)c(OCCCOc5cc6c(cc5OC)C(=O)N5C=C(c7ccc(N)cc7)C[C@@H]5C=N6)cc4N=C[C@H]3C2)cc1 | inconclusive: 9.5 nM [inhibitor, full curve] |
